Measured values: US20140199327A1, “METHODS OF PROMOTING DIFFERENTIATION” (Genentech, Inc., priority 2011, published 2014)
Results are given in words; binding and its absence hold for the method and conditions named. For some assays here: Binding seen in cells or lysates may run through a third protein. Some entries that bind do so weakly or less than the wild type. Where a sequence is shown, tags or fusion partners need not be part of it.

Legend:
[1] = biological target: T1, ID2 (co-transfected / co-expressed in 293T cells) (Homo sapiens (Human)) (UniProt Q02363); experiment: Flag immunoprecipitation of DUBs from 293T cells cotransfected with ID2, MG-132 treated; blot for ID2 (FIG. 2B)
T1 sequence: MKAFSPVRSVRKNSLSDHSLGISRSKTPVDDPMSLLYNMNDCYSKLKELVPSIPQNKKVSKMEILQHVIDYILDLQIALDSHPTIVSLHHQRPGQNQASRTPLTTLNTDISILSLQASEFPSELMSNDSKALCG

[2] = biological target: T1, ID2 (co-transfected / co-expressed in 293T cells) (Homo sapiens (Human)); experiment: discussion of the DUB screen and co-immunoprecipitation (FIG. 2)

binding [1]: binds
binding [2]: binds
B1: USP33-Flag (human USP33 with C-terminal Flag epitope) (enzyme, UniProt Q8TEY7 1-942, looked up, not shown: small tags and cut ends)
chain: MTGSNSHITILTLKVLPHFESLGKQEKIPNKMSAFRNHCPHLDSVGEITKEDLIQKSLGTCQDCKVQGPNLWACLENRCSYVGCGESQVDHSTIHSQETKHYLTVNLTTLRVWCYACSKEVFLDRKLGTQPSLPHVRQPHQIQENSVQDFKIPSNTTLKTPLVAVFDDLDIEADEEDELRARGLTGLKNIGNTCYMNAALQALSNCPPLTQFFLDCGGLARTDKKPAICKSYLKLMTELWHKSRPGSVVPTTLFQGIKTVNPTFRGYSQQDAQEFLRCLMDLLHEELKEQVMEVEEDPQTITTEETMEEDKSQSDVDFQSCESCSNSDRAENENGSRCFSEDNNETTMLIQDDENNSEMSKDWQKEKMCNKINKVNSEGEFDKDRDSISETVDLNNQETVKVQIHSRASEYITDVHSNDLSTPQILPSNEGVNPRLSASPPKSGNLWPGLAPPHKKAQSASPKRKKQHKKYRSVISDIFDGTIISSVQCLTCDRVSVTLETFQDLSLPIPGKEDLAKLHSSSHPTSIVKAGSCGEAYAPQGWIAFFMEYVKRFVVSCVPSWFWGPVVTLQDCLAAFFARDELKGDNMYSCEKCKKLRNGVKFCKVQNFPEILCIHLKRFRHELMFSTKISTHVSFPLEGLDLQPFLAKDSPAQIVTYDLLSVICHHGTASSGHYIAYCRNNLNNLWYEFDDQSVTEVSESTVQNAEAYVLFYRKSSEEAQKERRRISNLLNIMEPSLLQFYISRQWLNKFKTFAEPGPISNNDFLCIHGGVPPRKAGYIEDLVLMLPQNIWDNLYSRYGGGPAVNHLYICHTCQIEAEKIEKRRKTELEIFIRLNRAFQKEDSPATFYCISMQWFREWESFVKGKDGDPPGPIDNTKIAVTKCGNVMLRQGADSGQISEETWNFLQSIYGGGPEVILRPPVVHVDPDILQAEEKIEVETRSL
